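The test is a small-molecule microarray: each compound is printed twice on a reactive slide, and binding shows as fluorescence of the labelled oligonucleotide after washing. For the PreQ1, TPP and SAM-II riboswitches the laboratory earlier reported (doi:10.1038/s41467-019-09493-3) 1 µM RNA, 2 h, and a rule that included a mean Z-score above 3 (spot signal-to-noise against the whole library), a score well above that on a control array, and duplicate spots agreeing (coefficient of variation under 100). The data file gives only the calls; its cut-offs may differ, and compounds hitting several targets are kept. The calls come from the array alone, and fixing a compound to the slide can hide its binding.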 Key: 1 = hit, 0 = tested without a hit. Compounds were drawn at random from those tested, without regard to their results. A dash means that no call is listed here.

Oligonucleotides screened, 5′ to 3′:
TPP: TPP riboswitch RNA three-way junction, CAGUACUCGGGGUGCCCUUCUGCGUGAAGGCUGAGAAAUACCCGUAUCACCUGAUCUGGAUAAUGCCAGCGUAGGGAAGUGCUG. About 24,000 compounds screened, about 160 hits.
SAM-II: SAM-II riboswitch RNA pseudoknot, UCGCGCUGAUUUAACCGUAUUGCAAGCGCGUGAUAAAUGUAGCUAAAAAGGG. About 21,000 compounds screened, about 200 hits.
PreQ1: PreQ1 riboswitch RNA pseudoknot, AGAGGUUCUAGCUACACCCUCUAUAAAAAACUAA. From B. subtilis. About 24,000 compounds screened, about 170 hits.

Compound | TPP | SAM-II | PreQ1
Cc1ccc(N2C(=O)c3ccccc3C2Nc2ccc(C)c(C)c2)nc1 (stereo not drawn) | 0 | 0 | 0
CC1CCCN(C(=O)Cn2c(-c3nonc3N)nc3ccccc32)C1 (stereo not drawn) | 0 | 0 | 0
CCNC(=O)c1cc2c(-c3cc(OCCN4CCCC4)c(Cl)cc3Cl)nc(N)nc2s1 | 0 | 0 | 0
COc1ccc(Cn2nnc(C(=O)Nc3cc(C)cc(C)c3)c2N)cc1 | 0 | 0 | 0
COCc1ccc(C(=O)N2C[C@@H](CN(C)C)[C@@H](CO)C2)s1 | 0 | 0 | 0
CCCn1cnnc1CNC1CCN(c2cccc(C)c2C)CC1 | 0 | 0 | 0
CN(C)c1ccc2c(c1)OC(N)=C(C#N)C2c1ccc(Cl)cc1 (stereo not drawn) | 0 | 0 | 0
O=C(NC[C@H](O)CO)c1ccncc1Nc1ccc(I)cc1F | 0 | 0 | 0
COC(=O)c1cc(OCC2CCC2)cc(C(=O)N2[C@H]3CCNC[C@@H]2CC3)c1 | 0 | 0 | 0
COc1ccccc1NC(=O)CC1Nc2ccccc2NC1=O (stereo not drawn) | 0 | 0 | 0
CCc1nnc2c3ccccc3nc(Nc3cccc(O)c3)n12 | 0 | 0 | 0
Cc1cc(Nc2ccc(N3CCN(C(=O)c4ccco4)CC3)c(Cl)c2)n2ncnc2n1 | 0 | 0 | 0
CCOC(=O)c1ccc(NCn2c(=O)oc3ccccc32)cc1 | 0 | 0 | 0
O=S(=O)(NCC(Nc1ccccc1Cl)c1ccccc1)c1ccc(Cl)cc1 (stereo not drawn) | 0 | 0 | 0
CCCCc1c(C)nc(N)nc1N1CCN(C(=O)c2ccc[nH]2)CC1 | 0 | 0 | 0
Cc1ccc(CN(C)CC(=O)N2CCC(N3CCC(O)CC3)CC2)cc1 | 0 | 0 | 0
Nc1cnc(Nc2ccc(Br)cc2)nc1N.O=S(=O)(O)O | 0 | 0 | 0
Cc1nn(CC(=O)O)c(C)c1N | 0 | 0 | 0
COc1ccc(-c2nc3cc(N)ccc3o2)cc1Br | 0 | 0 | 1
CCOC(=CNc1ccc2nsnc2c1)OCC | 0 | 0 | 0
CC1CCN(S(=O)(=O)c2ccc(-c3nc(C#N)c(NCC4CCCO4)o3)cc2)CC1 (stereo not drawn) | 0 | - | 0
CNc1sc2c(c1C(=O)c1ccccc1)CCCC2 | 0 | 0 | 0
CCOc1ccc2[nH]c(CO)nc2c1 | 0 | 0 | 0
CCn1nc(C2CCCC2)nc1[C@@H](O)Cc1ccccc1 | 0 | 0 | 0
COc1ccc(CCNCc2ccc3c(c2)n(C)c(=O)n3C)cc1OC | 0 | - | 0
C=CC(C)(C)OCC(O)CN1CCC(C)CC1.Cl (stereo not drawn) | 0 | 0 | 0
CN(C)C[C@@H]1CN(C(=O)CCCOc2ccccc2)C[C@@H]1CO | 0 | 0 | 0
COc1cc(NC(=O)c2nnn(Cc3ccc(Br)cc3)c2N)cc(OC)c1 | 0 | 0 | 0
COc1c(F)c(F)c(-c2csc(N)n2)c(F)c1F | 0 | 0 | 0
CCn1c(N)nc2cc(C(=O)NCCC3=CSC4=NCCCN34)cnc21 | 0 | 0 | 0
O=C(O)CNc1cccc(C(=O)NCC(c2ccncc2)N2CCOCC2)c1 (stereo not drawn) | 0 | 0 | 0
Cc1cccc(NCc2nc3ccccc3n2CCOc2ccccc2)c1 | 0 | 0 | 0
CCCCc1c(-c2ccccc2)n(CCO)c2nc3c(c(=O)n(C)c(=O)n3C)n12 | 0 | 0 | 0
CCCCC(NC1CCS(=O)(=O)C1)C(=O)O (stereo not drawn) | 0 | 0 | 0
CC(C)c1noc(CCNc2nc(CCN)nc3ccccc23)n1 | 0 | 0 | 0
COc1ccc(CCN[C@H]2CS(=O)(=O)C[C@@H]2S(=O)(=O)c2ccc(Cl)cc2)cc1 | 0 | - | 0
OCCn1nc(C2(c3ccccc3)CC2)nc1Cc1ccc(F)cc1Cl | 0 | 0 | 0
O=C(NCC(O)c1cccnc1)c1cn(Cc2ccc(F)cc2)nn1 (stereo not drawn) | 0 | 0 | 0
Cc1cc2c(N3CCC(NCCNc4cccnc4)CC3)ncnc2s1 | 0 | 0 | 0
N[C@@H](CCc1nc(Cn2cncn2)nn1C1CCCCC1)C(=O)O | 0 | 0 | 0
Cc1[nH]c2ccccc2c1C(Nc1ccc(F)cc1)c1ccncc1 (stereo not drawn) | 0 | 0 | 0
COc1ccc(F)c(-c2ccccc2CN2CCNCC2)c1 | 0 | 0 | 0
O=C(NCc1cc2n(n1)CCCNC2)c1c[nH]nc1C1CCCCC1 | 0 | 0 | 0
c1ccc2c(CN3CCC4(CCCNC4)C3)c[nH]c2c1 (stereo not drawn) | 0 | 0 | 0
COC(=O)c1cc(NCc2ccc(C)s2)ccc1N1CCOCC1 | 0 | 0 | 0
Nc1cccc(S(=O)(=O)NC2CCCCCC2)c1 | 0 | - | 0
Cc1ccccc1Nc1nc(C2(C)CC3(CC(C)(C)OC3=O)C(=O)O2)cs1 (stereo not drawn) | 0 | 0 | 0
CS(=O)(=O)c1cnc(NCCN2CCOC2=O)nc1C1CCCNC1 (stereo not drawn) | 0 | 0 | 0
O=C(N[C@@H]1c2ccccc2C2(CCNCC2)[C@H]1OCc1cccnc1)c1cc[nH]n1 | 0 | 0 | 0
c1ccc2c(c1)CCC[C@@H]2n1ccnc1-c1cn(C2CCNCC2)nn1 | 0 | 0 | 0
CC(=O)c1sc2nc3c(cc2c1N)CN(C)CC3 | 0 | 0 | 0
NS(=O)(=O)c1cc2c(cc1Cl)NC(CC1CCCC1)NS2(=O)=O (stereo not drawn) | 0 | 0 | 0
C=Cc1cc(OC)c2c(c1)c(=O)oc1c2cc(OC)c2c(O)ccc(C3OC(C)C(O)C(C)(O)C3O)c21 (stereo not drawn) | 0 | 0 | 0
CC(C)Oc1ccc(CN2CCN(Cc3cccc(F)c3)CC2)cc1CO | 0 | 0 | 0

Source: the ROBIN nucleic acid binder screens (doi:10.1002/anie.202211358).